Values of other authors, collected in US9370164B2, “Breeding, production, processing and use of specialty Cannabis” (Biotech Institute LLC, priority 2013, dated 2016).
At least one compound was matched to its structure with a doubt left.

For C=C(C)[C@@H]1CCC(C)=C[C@H]1c1c(O)cc(CCCCC)cc1O [CBD], the “Pharmacological Action: Anti-proliferative” value is given as “✓”.
